Earlier results on one molecule are cited in PMC7308271, “Discovery of a new class of orthosteric antagonists with nanomolar potency at extrasynaptic GABAA receptors” (Scientific Reports, 2020).

For this data set, the target named is [^3H]muscimol binding (GABAΑ receptors) in rat brain cortical homogenate. The conditions noted are these: reference, ref Krall et al.[48]; cited from earlier work.

On to `NCCCC(=O)O` [GABA], for which the Ki (as a rule, the dissociation constant of the complex between target and ligand, obtained from inhibition or displacement) was 49 nM.
